This note sets out measurements from PubChem BioAssay AID720536 (National Center for Advancing Translational Sciences (NCATS), 2013).

Only a part is listed here, and it is no random draw. Results filed as inconclusive are left out. Activity calls are given as the source filed them. The call rests on the fitted dose curve; in most records, active means well fitted inhibition curve with a large enough effect; inconclusive means small, poorly fitted or top-dose-only effect; inactive means no such curve, though single readings can be large or run the other way.
Potency means the concentration at half of the fitted maximal effect.

The nature of this assay: qHTS for Inhibitors of TGF-b: CCL64 Cells Orthogonal Assay for Cherry Picks. Further: nearly all actives have a fitted effect of over 65% in size. The note with it: CCL64 CAGA-GFP reporter, TGF-b stimulated, GFP fluorescence, 18 h. The text has this: TGF-b is a main component in the TGF-b signaling pathway which plays diverse roles in cellular and development pathways. TGF-b is the mediated by the transcription factors Smads. Although the Smad-dependent pathway is the primary canonical TGF-b signaling node, TGF-b1 can also activate alternative signaling pathways, including those involving MAPK (ERK, JNK and p38). This interaction may mediate or enhance Smad-dependent responses, or can exert Smad-independent effects. The complexity of this signaling cascade allows the TGF-b superfamily to perform unique, overlapping or redundant functions. […] We aim to identify Smad3-small molecule antagonists using a quantitative high throughput screening (qHTS) approach. […]
Suspensions of trypsinized CCL64 CAGA-GFP cells were dispensed into white, tissue culture-treated, solid 1536-well plates at 5uL/well (1000 cells/well final concentration) in DMEM medium supplemented with 1% FBS. […] The plates were measured on an Acumen eX3 Explorer plate reader for GFP fluorescence (ex488/em500-530). GFP values were calculated by determining the mean GFP fluorescence of individual cells, and compiling these values for each well to determine a total well GFP signal. The %Activity was determined from the corrected fluorescence values. […] Concentration-response curves were fitted to the signals arising from the resulting fluorescence. […]
On the technique in general: qHTS replaces the single test concentration by a dilution series.
As to `COc1cc2c(c(OC)c1OC)-c1ccc(OC)c(=O)cc1C(N)CC2` (stereo unspecified), the Potency is active: 1.3 µM.
